From publication doi:10.1101/2024.04.26.591323 come the findings set out here.

The exact form of at least one protein or probe is not confirmed. For part of these data: Negatives hold for the conditions tested. Where a protein sequence is shown, tags need not be part of it. For part of these data: At least one result comes from cells or an extract, where the contact may be indirect.

Holding throughout (experiment): pull-down
The target in data set [1] is T1, endogenous TG2 (immortalised HUVEC extract) (Homo sapiens) (UniProt P21980).
T1 sequence (looked up, limits assumed): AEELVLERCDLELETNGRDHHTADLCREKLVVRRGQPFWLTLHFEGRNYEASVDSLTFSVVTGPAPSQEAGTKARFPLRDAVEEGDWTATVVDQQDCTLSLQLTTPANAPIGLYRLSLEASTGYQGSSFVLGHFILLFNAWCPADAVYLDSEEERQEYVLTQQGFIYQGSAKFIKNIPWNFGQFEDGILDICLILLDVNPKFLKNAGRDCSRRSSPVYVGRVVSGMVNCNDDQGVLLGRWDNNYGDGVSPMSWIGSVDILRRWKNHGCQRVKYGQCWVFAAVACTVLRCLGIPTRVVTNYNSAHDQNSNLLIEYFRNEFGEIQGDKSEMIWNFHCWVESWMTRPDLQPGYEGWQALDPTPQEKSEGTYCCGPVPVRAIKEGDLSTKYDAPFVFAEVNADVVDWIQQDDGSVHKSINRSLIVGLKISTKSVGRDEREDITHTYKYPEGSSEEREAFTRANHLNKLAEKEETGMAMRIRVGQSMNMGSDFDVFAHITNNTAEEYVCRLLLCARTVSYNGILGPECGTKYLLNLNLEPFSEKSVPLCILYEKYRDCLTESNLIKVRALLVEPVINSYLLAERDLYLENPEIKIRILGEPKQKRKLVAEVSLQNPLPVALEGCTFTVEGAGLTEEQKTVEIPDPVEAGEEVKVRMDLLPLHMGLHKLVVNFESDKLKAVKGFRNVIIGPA
Particulars: 200 ug extract protein; protein in an extract.

The target of data set [2] is T2, TG2 (transglutaminase 2), His6-tagged (Homo sapiens) (UniProt P21980).
T2 sequence (looked up, limits assumed): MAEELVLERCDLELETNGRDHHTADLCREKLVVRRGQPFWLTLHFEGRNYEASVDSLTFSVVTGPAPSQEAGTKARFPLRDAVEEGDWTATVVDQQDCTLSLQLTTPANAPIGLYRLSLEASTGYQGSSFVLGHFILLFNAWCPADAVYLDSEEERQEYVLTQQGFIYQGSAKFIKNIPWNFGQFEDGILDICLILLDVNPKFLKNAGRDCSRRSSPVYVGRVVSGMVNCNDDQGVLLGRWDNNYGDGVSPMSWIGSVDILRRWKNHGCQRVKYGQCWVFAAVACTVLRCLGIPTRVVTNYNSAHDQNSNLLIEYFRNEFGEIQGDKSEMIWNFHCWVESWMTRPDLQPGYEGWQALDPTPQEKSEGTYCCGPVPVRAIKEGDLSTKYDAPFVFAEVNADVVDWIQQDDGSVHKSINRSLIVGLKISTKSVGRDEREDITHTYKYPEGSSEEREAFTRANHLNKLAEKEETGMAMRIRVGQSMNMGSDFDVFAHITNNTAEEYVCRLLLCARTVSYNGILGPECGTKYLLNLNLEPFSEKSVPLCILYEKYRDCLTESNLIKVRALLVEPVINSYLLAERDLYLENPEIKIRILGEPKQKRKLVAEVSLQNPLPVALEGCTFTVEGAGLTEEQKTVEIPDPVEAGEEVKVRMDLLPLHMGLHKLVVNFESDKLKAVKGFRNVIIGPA
Particulars: 0.5 mM GTPgS (closed TG2).

In data set [3] the target is T3, endogenous TG2 (primary HUVEC extract) (Homo sapiens) (UniProt P21980).
T3 sequence (looked up, limits assumed): T1 sequence (looked up, limits assumed)
Particulars: 200 ug extract protein; protein in an extract.

On to “CCUGGUUUUUAAGGAGUGUCGCCAGAGUGCCGCGAAUGAAAAAC [43-mer RNA 3' End Biotin]”, for which the binding result is reported as “binds” in data set [1], “no binding” in data set [2] and “binds” in data set [3].
